From article PMC6686008
No constants are given. Whether binding was seen depends on the method and setting. For some of these results: In cells and extracts the contact can be indirect. Some binding calls cover weakened binding; strength is not graded here. For some of these results: Where a sequence is shown, tags or fusion partners need not be part of it.

Tests used:
[1] = biological target: T1, GBD-Stn1 + Ten1 (Gal4 DNA-binding domain fused to Stn1, in the presence of untagged Ten1) (S. pombe) (UniProt Q0E7J7+P0C5Y7); assay: two-hybrid; GAD fused to Tpz1, GBD fused to Stn1, in the presence of untagged Ten1; growth on -His plate indicates interaction; mated S. cerevisiae Y2HGold x Y187
T1 sequence 1: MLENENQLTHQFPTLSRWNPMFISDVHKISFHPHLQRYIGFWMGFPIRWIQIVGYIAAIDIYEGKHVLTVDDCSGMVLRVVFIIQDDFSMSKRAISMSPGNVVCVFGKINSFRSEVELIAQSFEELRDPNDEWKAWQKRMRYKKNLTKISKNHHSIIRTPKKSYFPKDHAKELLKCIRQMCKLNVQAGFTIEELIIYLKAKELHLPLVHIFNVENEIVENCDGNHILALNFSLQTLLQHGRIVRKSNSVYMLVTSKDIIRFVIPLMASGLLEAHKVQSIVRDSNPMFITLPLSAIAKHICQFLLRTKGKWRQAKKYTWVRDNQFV
T1 sequence 2: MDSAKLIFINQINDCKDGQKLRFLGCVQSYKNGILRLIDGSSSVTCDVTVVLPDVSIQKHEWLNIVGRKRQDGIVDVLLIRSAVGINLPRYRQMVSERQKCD

[2] = biological target: T2, Ten1 (yeast two-hybrid fusion) (S. pombe) (UniProt P0C5Y7); assay: two-hybrid; Stn1 and Ten1 as Gal4 fusions (Supplementary Fig 6); mated S. cerevisiae Y2HGold x Y187, SD-HTL or SD-HTLA plates
T2 sequence: T1 sequence 2

[3] = biological target: T3, DNA polymerase α (Polα) (S. pombe) (UniProt P28040); assay: co-IP; S. pombe cell extracts; lysis buffer 50 mM Tris pH 8.0, 150 mM NaCl, 10% glycerol, 5 mM EDTA, 0.5% NP-40; Dynabeads Protein G with anti-myc, anti-FLAG or anti-GFP
T3 sequence: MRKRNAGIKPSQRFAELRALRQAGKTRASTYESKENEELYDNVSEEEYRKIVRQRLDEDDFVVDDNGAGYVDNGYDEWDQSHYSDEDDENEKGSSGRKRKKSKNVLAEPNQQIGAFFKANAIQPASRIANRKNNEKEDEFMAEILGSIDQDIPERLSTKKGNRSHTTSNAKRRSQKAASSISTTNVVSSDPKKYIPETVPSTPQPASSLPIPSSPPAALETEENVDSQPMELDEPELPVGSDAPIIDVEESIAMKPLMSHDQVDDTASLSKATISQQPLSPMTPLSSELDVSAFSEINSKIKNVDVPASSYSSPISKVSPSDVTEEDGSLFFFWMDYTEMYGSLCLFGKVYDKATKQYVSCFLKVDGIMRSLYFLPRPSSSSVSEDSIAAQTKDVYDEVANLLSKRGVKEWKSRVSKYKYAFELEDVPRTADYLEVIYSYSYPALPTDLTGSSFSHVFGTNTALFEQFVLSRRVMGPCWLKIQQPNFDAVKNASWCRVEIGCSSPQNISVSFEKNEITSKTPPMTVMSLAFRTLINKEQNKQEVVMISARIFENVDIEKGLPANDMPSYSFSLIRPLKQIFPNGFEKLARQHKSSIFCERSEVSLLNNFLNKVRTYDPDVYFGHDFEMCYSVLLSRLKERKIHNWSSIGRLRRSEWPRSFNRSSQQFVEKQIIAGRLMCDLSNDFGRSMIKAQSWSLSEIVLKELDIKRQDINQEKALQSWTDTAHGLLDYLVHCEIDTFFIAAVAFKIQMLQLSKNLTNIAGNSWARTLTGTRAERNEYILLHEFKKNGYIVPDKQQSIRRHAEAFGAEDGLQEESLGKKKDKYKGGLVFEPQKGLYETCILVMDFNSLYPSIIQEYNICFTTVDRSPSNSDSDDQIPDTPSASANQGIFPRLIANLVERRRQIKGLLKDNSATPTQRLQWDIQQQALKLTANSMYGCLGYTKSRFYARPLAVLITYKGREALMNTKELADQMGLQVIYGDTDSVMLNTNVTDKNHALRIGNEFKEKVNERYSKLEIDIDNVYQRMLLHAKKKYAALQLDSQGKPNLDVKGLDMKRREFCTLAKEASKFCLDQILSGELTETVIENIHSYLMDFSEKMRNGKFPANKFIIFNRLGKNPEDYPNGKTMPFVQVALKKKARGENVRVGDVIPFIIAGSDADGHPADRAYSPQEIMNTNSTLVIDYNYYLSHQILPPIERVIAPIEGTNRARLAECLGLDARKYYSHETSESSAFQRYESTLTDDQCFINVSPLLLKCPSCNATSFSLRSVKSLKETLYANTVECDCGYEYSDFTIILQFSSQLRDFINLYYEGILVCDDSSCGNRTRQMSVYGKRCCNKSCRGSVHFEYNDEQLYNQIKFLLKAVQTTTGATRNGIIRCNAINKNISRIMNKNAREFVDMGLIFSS

[4] = biological target: T4, Ten1 (in fission yeast cells) (S. pombe) (UniProt P0C5Y7); assay: as above
T4 sequence: T1 sequence 2

[5] = biological target: T5, Pot1 (S. pombe) (UniProt O13988); assay: as above
T5 sequence: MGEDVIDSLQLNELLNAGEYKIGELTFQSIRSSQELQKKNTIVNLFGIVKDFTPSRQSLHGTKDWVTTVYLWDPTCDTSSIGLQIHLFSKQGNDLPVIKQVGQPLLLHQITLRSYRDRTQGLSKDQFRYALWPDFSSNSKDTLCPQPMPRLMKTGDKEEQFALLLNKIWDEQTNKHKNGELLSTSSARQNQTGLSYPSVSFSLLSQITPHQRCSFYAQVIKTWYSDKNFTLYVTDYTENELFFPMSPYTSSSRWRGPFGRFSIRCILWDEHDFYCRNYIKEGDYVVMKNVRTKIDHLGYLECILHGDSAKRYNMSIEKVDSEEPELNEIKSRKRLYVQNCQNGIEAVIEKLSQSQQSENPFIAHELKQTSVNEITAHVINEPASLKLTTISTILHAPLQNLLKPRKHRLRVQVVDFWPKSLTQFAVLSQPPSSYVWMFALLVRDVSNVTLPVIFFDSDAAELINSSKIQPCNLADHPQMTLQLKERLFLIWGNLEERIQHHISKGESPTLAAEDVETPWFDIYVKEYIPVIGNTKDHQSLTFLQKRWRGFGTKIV

[6] = biological target: T6, Poz1 (S. pombe) (UniProt O13852); assay: as above
T6 sequence: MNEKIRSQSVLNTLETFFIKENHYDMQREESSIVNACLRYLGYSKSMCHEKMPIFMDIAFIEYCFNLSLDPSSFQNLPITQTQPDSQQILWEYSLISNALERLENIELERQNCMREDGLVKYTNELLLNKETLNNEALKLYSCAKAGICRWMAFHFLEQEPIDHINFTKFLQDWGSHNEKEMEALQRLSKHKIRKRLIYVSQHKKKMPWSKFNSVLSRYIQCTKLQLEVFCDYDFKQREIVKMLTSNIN

[7] = biological target: T7, Stn1 (in fission yeast cells) (S. pombe) (UniProt Q0E7J7); assay: co-IP; S. pombe whole cell extract, FLAG-IP; lysis buffer 50 mM Tris pH 8.0, 150 mM NaCl, 10% glycerol, 5 mM EDTA, 0.5% NP-40; 2 mM DSP added to stabilize the interaction
T7 sequence: T1 sequence 1

B1: GAD-Tpz1 (Gal4 activation domain fused to Tpz1) (protein, UniProt O14246 1-508)
chain: MSNCLKHPWLENGLLNLIKNADVLPIRVFKCQPLQIFEYIRYEHPIRCKLSDTEFYIEAEFSSQSISDLNNFTEKRITSLRGGIVTLGNFLIHLIPSQSGIIPWIQVESFNFQGCEGAVFGNPKAITTSALFNALLQSPYLAALANEFNRSIKEGSSYQEASLSQQEKPNDNTSNSRDIKNNIQFHWKNMTSLSIEECIIPKGQQLILEKESEENTTHGIYLEERKMAQGLHNSVSETPEVKQEDNDEDLDAYSWSSSTDSAGEIPSLPTNRKILEKIAEKPPPFESPLEDDETPDQTNEHEANQVNVSQLPLNPRGSGISGRPVESTEQLNSSLTIERSQSIQSTDSKQRVETQSHRRSKIEIFDAQDELFDRSICTTIDDSTGKLLNAEETPIKTGDLHSTSASSVISCTPPAINFTSDICNEQIELEYKRKPIPDYDFMKGLETTLQELYVEHQSKKRRLELFQLTNNHQKNSEACEMCRLGLPHGSFFELLRDWKKIEEFRNKS
binding [1]: binds

B2: Stn1 (yeast two-hybrid fusion, Stn1-Ten1 assay) (protein, UniProt Q0E7J7 1-325)
chain: T1 sequence 1
binding [2]: binds

B3: Stn1 (in fission yeast cells) (protein, UniProt Q0E7J7 1-325)
chain: T1 sequence 1
binding [3]: binds
binding [4]: binds

B4: myc-tagged wild-type Tpz1 (protein, UniProt O14246 1-508)
chain: B1 chain
binding [5]: binds
binding [6]: binds

B5: Tpz1 (wild type, in fission yeast cells) (protein, UniProt O14246 1-508)
chain: B1 chain
binding [7]: binds
